In PMC2757719:
These are yes or no findings as the source states them, for the method shown. Binding seen in cells or lysates may run through a third protein. A yes stands for co-enrichment or nearness to the bait. Other partners may have been found.

Amino acid sequences for entries named in this document (tags omitted).
UniProt Q93009: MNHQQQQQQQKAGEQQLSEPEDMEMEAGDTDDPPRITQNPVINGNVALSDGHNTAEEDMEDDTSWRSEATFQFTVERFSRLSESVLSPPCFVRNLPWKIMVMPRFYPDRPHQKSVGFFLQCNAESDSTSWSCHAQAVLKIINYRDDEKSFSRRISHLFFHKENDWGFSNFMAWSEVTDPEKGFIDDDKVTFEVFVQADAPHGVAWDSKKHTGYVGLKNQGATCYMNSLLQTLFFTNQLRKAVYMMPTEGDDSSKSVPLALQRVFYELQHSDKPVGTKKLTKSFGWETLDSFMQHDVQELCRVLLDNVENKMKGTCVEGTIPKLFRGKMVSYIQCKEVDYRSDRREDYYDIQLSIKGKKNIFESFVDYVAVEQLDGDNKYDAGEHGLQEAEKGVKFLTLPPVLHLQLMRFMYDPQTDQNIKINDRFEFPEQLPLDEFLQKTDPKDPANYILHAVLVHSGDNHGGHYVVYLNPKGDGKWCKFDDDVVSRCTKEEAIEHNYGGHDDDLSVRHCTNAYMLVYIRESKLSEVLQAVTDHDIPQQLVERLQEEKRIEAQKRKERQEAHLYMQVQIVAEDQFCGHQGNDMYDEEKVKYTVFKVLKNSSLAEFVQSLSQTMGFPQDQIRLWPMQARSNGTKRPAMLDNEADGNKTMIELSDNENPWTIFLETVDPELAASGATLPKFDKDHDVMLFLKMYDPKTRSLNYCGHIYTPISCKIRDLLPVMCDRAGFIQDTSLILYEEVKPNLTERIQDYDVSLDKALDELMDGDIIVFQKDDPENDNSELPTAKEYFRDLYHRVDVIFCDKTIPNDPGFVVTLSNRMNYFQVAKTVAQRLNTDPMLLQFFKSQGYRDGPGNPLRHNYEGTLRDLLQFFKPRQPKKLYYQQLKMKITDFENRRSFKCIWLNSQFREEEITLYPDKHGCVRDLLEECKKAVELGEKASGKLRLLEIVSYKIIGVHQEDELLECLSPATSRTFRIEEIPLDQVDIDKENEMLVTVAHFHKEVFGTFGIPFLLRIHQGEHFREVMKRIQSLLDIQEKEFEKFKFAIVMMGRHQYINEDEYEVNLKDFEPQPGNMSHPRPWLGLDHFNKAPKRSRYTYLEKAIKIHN
UniProt P49915: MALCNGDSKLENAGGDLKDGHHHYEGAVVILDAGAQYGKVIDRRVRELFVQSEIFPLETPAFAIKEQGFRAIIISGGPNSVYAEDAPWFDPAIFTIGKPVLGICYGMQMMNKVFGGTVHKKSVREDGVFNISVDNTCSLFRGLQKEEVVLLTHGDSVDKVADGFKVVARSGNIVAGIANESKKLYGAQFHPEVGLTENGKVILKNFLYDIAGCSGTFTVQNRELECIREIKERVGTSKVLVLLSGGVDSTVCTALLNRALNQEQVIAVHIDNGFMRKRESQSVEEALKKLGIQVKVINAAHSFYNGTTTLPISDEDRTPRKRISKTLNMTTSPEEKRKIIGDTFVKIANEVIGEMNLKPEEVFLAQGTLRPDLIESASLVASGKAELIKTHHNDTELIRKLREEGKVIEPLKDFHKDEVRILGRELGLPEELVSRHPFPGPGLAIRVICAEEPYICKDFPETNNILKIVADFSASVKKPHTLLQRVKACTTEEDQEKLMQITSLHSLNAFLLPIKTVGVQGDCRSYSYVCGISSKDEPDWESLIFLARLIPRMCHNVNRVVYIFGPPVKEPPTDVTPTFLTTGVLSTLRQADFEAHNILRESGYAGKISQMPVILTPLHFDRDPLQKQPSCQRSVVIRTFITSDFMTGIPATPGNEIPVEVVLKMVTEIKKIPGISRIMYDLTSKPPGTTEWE

Target: USP7 (ubiquitin specific protease USP7), full length (human) (UniProt Q93009)
Experiment: affinity purification with mass spectrometry; purified USP7 covalently coupled to Affi-Gel 10 at 0, 0.5, 1 or 2 mg per ml resin; HeLa whole cell lysate applied; column buffer 50 mM HEPES pH 7.5, 100 mM NaCl, 1 mM DTT, 0.1 mM EDTA, 10% glycerol; eluted with 1 M NaCl then 1% SDS; silver-stained band identified by MALDI-ToF; only the target purified

- binding: binds
Substance: GMP synthetase (GMPS), endogenous in HeLa whole cell lysate (from UniProt P49915 1-693) (enzyme)
